# Reference: PubChem BioAssay AID2551 (National Center for Advancing Translational Sciences (NCATS), 2010)
# The chains behind the UniProt entries cited, without tags or fusion partners. Where a name states a change or a piece, a line headed by the entry shows the natural chain unless it says otherwise.
# UniProt P51450: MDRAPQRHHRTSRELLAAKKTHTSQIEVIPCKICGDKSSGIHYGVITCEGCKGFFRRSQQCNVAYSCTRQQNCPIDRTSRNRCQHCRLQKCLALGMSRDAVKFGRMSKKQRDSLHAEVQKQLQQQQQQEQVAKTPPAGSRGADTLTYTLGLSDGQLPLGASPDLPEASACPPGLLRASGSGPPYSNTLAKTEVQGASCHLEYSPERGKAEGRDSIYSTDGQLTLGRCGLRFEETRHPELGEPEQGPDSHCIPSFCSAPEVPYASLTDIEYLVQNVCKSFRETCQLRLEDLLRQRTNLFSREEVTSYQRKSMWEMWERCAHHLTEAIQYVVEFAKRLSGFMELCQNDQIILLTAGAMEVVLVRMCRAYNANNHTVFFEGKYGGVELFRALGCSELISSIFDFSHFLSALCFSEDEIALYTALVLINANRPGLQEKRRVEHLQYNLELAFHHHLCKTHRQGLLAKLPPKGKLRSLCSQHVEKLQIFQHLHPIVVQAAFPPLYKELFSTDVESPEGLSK
# Among all 310,000 compounds or so, about 17,000 (5.5%) were called active. Inconclusive results, whose numbers are uncertain, are shown with a selection of clear calls. The call rests on the fitted dose curve; in most records, active means well fitted inhibition curve with a large enough effect; inconclusive means small, poorly fitted or top-dose-only effect, or effect the other way; inactive means no such curve, though single readings can be large or run the other way. A potency beside an inconclusive call is a rough fit, not a confirmed value.
# Molecular target: Nuclear receptor ROR-gamma (Mus musculus) (UniProt P51450)
# Experiment: qHTS for inhibitors of ROR gamma transcriptional activity; further: nearly all actives have a fitted effect of over 60% in size
# Conditions: Drosophila S2 Gal4-RORgamma UAS-luciferase reporter, 20 h; activity change, negative = inhibition: at 53.6 µM (top of the series)
# In short: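 Luciferase reporter read in Schneider cells carrying Gal4-RORγ (mouse) and UAS-Photinus luciferase; cells given compound 1 h before 700 uM copper sulfate induction, then incubated 20 h at ambient temperature.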
# On the % scale 0 is the no-effect control and ±100 the full control effect; potency means the concentration at half of the fitted maximal effect.
SMILES,Potency,"activity change, negative = inhibition"
O=C(Nc1nc(-c2ccccc2)c(C(=O)c2ccccc2)s1)c1ccc(S(=O)(=O)N2CCCCC2)cc1,"inconclusive: 20 µM [activator, single point]",–
COc1ccc2nc(C)cc(SCC(=O)NNC(=O)COc3cccc4ccccc34)c2c1,"inconclusive: 35.5 µM [inhibitor, single point]",–
CNc1nc(-c2ccc(OC)cc2)c(-c2ccc(OC)cc2)s1,"inconclusive: 35.5 µM [inhibitor, single point]",–
Nc1ccc2c(c1)nnn2-c1ccccc1,"inconclusive: 31.6 µM [inhibitor, single point]",–
CCc1nnc(NC(=O)CSc2nnc(-c3ccccc3O)n2-c2ccc(C)cc2)s1,"inconclusive: 35.5 µM [inhibitor, single point]",–
O=C(Oc1c(CN2CCOCC2)cc(Cl)c2cccnc12)c1cccs1,active: 1.41 µM,–
CC1CCN(C(=O)CSc2nc(N)c(NC(=O)c3ccccc3)c(=O)[nH]2)CC1,–,inactive: -21.8%
O=C(Nc1ccc(Cl)c([N+](=O)[O-])c1)c1cnccn1,"inconclusive: 22.4 µM [activator, single point]",–
O=C(O)/C(=C1\OC(=O)c2ccccc21)c1ccccc1,"inconclusive: 6.31 µM [activator, single point]",–
CCOc1c(OC(C)=O)ccc(/C=C/c2ccc3cccc(OC(C)=O)c3n2)c1[N+](=O)[O-],active: 3.16 µM,–
COC(=O)c1sc(NC(=O)C(C)C)c(C(=O)OC)c1C,"inconclusive: 7.94 µM [inhibitor, single point]",–
Clc1ccccc1CN1CCN(/N=C/C=C/c2ccco2)CC1,"inconclusive: 3.55 µM [activator, partial curve]",–
S=C(NCCc1ccccc1)N1CCN(Cc2ccc(Cl)c(Cl)c2)CC1,"inconclusive: 15.8 µM [inhibitor, single point]",–
COc1cccc(C(=O)NC(=S)Nc2ccccc2N2CCCCC2)c1,active: 2.51 µM,–
O=C(CSc1nnc(CCc2nc3ccccc3[nH]2)n1-c1ccccc1)NCc1ccccc1,"inconclusive: 10 µM [activator, partial curve, poor fit]",–
CCNc1nc(NC(C)(C)C)nc(N2CCCCC2)n1,"inconclusive: 17.8 µM [inhibitor, single point]",–
O=C(CSc1ccccc1)NCCCc1ccccc1,–,inactive: 33.3%
Cc1nn(-c2ccccc2)c(Cl)c1/C=N/NC(=O)c1ccco1,–,inactive: 22%
Cc1sc2nc(CN3CCOCC3)nc(Cl)c2c1C,"inconclusive: 22.4 µM [inhibitor, single point]",–
Cc1cc(O)cc(O)c1C(=O)Cc1ccccc1,"inconclusive: 2.24 µM [inhibitor, partial curve]",–
NC(=O)/C=C\C(=O)Nc1cccc(C(F)(F)F)c1,"inconclusive: 31.6 µM [inhibitor, single point]",–
Cn1cc(-c2nc3cnc(N4CCNCC4)nc3n(CCC#N)c2=O)c2ccccc21,"inconclusive: 35.5 µM [inhibitor, single point]",–
O=[N+]([O-])c1ccc(NC(=S)NCc2ccc(F)cc2)cc1,"inconclusive: 35.5 µM [activator, single point]",–

# Full records from above:
# CCc1nnc(NC(=O)CSc2nnc(-c3ccccc3O)n2-c2ccc(C)cc2)s1 is entered as Potency: inconclusive: 35.5 µM [inhibitor, single point]
# NC(=O)/C=C\C(=O)Nc1cccc(C(F)(F)F)c1 is entered as Potency: inconclusive: 31.6 µM [inhibitor, single point]

# (next part)

SMILES,Potency,"activity change, negative = inhibition"
O=S(=O)(Cc1ccc(Cl)cc1)Nc1ccc(Cl)cn1,–,inactive: 6.83%
Cc1cc(OCCOc2cccc3cccnc23)cc(C)c1Cl,active: 20 µM,–
COc1ccc(-c2cc(=O)[nH]c(N3CCN(Cc4ccccc4)CC3)n2)cc1,–,inactive: 133%
COc1cccc(-c2nc(N3CC(C)CC(C)C3)c3ccccc3n2)c1O (stereo unspecified),–,inactive: 22.9%
Cn1c(N2CCN(C(c3ccccc3)c3ccccc3)CC2)nc2c1c(=O)[nH]c(=O)n2C,"inconclusive: 8.91 µM [activator, partial curve]",–
COCCNC(=O)C(c1ccc(C)cc1)N(C(=O)CCC(=O)Nc1ccccn1)c1cccc(C)c1 (stereo unspecified),–,inactive: 2.25%
CCc1ccc(/C=c2\s/c(=C\C(=O)C(C)(C)C)[nH]c2=O)cc1,"inconclusive: 4.47 µM [inhibitor, single point]",–
COc1ccc(-c2csc(N3CCOCC3)n2)cc1OC,"inconclusive: 0.708 µM [activator, full curve, poor fit]",–
O=C1/C(=C/c2cccnc2)SC(=S)N1NS(=O)(=O)c1ccccc1,"inconclusive: 12.6 µM [activator, single point]",–
CCOC(=O)C1=C(c2ccccc2)O/C(=C(/C#N)C(F)(F)F)S1,active: 14.1 µM,–
O=C1NCC2=C1C(c1ccccc1)Nc1ccccc1N2 (stereo unspecified),–,inactive: 18.3%
Cc1cc(NC(=O)c2cc(C(C)C)on2)no1,–,inactive: 3.11%
N/C(=N/OC(=O)c1ccccc1Cl)c1ncc([N+](=O)[O-])s1,"inconclusive: 17.8 µM [inhibitor, single point]",–
CC(/C=N/NC(=O)c1cnccn1)=C\c1ccco1,–,inactive: 19.5%
COc1ccc(/C=C2/N=C(SC3CCOC3=O)N(c3cccc(OC)c3)C2=O)cc1 (stereo unspecified),"inconclusive: 1 µM [activator, full curve, poor fit]",–
Cc1nn2c(-c3cccnc3)ccnc2c1-c1ccccc1,"inconclusive: 12.6 µM [activator, single point]",–
c1cnc2c(OCc3nc4ccccc4[nH]3)cccc2c1,"inconclusive: 35.5 µM [inhibitor, single point]",–
CN=c1scc(-c2ccc(OC)cc2)n1/N=C(\C)c1cccnc1,"inconclusive: 22.4 µM [inhibitor, single point]",–
CCC(=O)Nc1nc(C)c(-c2csc(Nc3ccccn3)n2)s1,"inconclusive: 10 µM [activator, partial curve, poor fit]",–
CC1(C)CC(=O)C(C(C2=C(O)CC(C)(C)CC2=O)c2cccs2)C(=O)C1 (stereo unspecified),"inconclusive: 2.24 µM [inhibitor, partial curve, poor fit]",–
Cc1ccc(S(=O)(=O)c2nc(C(C)(C)C)oc2N2CCOCC2)cc1,"inconclusive: 3.16 µM [inhibitor, partial curve, poor fit]",–
CCCCN1CN(Cc2ccccc2)CNC1=S,active: 4.47 µM,–
CCC(=O)Nc1cccc(C(=O)/C=C/c2cc(Br)ccc2OC)c1,active: 11.2 µM,–
